# Primary screen of a compound library

Sequences of proteins named here, by UniProt entry; tags and fusion partners are left off. Residues count along the entry.
UniProt I6X8D2, whole entry: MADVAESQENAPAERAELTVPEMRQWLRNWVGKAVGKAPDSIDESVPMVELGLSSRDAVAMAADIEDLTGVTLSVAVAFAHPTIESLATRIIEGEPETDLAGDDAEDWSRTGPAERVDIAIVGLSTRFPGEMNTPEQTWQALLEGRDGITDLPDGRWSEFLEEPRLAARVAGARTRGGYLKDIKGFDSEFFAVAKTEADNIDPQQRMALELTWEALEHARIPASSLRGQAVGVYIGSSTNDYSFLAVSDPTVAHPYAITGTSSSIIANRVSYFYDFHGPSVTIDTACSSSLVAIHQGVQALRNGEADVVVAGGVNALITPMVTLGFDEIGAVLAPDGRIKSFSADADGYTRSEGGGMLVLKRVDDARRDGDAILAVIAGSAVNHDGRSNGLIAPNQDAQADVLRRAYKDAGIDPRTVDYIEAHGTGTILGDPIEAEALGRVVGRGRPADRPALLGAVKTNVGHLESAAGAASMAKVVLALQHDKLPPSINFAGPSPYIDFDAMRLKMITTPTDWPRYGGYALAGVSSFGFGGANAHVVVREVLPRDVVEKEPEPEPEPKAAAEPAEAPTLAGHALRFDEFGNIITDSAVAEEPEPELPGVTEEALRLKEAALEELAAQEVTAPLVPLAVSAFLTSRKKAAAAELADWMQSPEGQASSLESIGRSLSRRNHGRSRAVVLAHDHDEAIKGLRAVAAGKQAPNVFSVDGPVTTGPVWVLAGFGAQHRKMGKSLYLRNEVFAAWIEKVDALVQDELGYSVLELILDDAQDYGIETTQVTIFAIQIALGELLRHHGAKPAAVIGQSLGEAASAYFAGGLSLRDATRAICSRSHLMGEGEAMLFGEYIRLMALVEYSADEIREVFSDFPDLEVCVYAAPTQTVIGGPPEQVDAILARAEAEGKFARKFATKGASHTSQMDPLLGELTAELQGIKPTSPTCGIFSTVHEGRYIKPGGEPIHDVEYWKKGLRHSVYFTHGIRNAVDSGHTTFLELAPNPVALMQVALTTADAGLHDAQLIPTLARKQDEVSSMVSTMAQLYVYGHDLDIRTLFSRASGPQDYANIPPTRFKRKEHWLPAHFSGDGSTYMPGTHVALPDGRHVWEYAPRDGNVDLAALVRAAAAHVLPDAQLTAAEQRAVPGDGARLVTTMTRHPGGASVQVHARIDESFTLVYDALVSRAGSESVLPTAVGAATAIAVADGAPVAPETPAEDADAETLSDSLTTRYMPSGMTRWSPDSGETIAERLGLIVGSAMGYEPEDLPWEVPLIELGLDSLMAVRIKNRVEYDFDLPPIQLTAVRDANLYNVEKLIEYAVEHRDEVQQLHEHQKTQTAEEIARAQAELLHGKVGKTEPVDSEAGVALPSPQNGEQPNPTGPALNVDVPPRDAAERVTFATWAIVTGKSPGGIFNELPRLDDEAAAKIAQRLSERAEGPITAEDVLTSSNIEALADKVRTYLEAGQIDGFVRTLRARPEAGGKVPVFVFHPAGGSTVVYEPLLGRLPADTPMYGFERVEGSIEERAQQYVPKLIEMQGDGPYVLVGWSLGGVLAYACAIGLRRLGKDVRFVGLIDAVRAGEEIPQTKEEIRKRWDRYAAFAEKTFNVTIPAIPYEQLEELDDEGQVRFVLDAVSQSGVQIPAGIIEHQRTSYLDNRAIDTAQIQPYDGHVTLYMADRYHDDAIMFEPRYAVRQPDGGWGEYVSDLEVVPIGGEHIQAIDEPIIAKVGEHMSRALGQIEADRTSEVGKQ
UniProt Q4DA54, 1-478: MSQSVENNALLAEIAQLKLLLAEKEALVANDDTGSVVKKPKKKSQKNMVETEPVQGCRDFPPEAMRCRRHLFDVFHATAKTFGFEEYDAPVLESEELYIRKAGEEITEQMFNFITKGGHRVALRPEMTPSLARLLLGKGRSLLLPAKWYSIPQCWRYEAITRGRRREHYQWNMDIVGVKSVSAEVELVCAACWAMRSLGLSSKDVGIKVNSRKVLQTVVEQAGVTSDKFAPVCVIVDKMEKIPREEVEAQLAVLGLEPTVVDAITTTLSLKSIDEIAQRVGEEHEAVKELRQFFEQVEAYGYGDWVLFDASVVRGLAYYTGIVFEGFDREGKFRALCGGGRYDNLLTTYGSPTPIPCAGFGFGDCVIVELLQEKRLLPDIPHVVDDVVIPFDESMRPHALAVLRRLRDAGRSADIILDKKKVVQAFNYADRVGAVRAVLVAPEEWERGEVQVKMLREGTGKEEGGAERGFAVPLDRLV
UniProt A4I591, 1-473: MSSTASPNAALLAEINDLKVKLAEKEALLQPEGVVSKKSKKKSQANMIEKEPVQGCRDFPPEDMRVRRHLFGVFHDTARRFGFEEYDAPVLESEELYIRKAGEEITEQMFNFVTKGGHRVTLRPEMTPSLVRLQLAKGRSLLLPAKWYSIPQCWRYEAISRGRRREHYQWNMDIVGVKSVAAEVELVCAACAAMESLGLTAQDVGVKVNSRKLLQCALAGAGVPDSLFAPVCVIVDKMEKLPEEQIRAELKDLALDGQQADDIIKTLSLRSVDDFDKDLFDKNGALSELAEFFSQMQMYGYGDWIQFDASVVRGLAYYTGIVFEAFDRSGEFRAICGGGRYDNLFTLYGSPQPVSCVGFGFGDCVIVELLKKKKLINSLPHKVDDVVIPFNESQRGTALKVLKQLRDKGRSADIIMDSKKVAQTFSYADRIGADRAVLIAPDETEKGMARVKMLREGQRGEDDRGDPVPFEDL

Measurements from “University of Dundee, Small-Polar-MMV Screening Library” (2021), ChEMBL document CHEMBL3988442.

Pks13 thioesterase: 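Polyketide synthase Pks13, Mycobacterium tuberculosis (UniProt I6X8D2). Enzyme assay of the thioesterase domain of polyketide synthase 13; the read-out is not stated. Compounds at 30 µM. The record gives no direction; the compounds picked for IC50 retests had high values, so higher reads as stronger inhibition. Of about 67,000 compounds tested this way, about 300 (0.46%) reached 50% or more in at least one test.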
TcHisRS: 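Enzyme assay of histidyl-tRNA synthetase; the read-out is not stated. Target: Histidine-tRNA ligase, Trypanosoma cruzi CL Brener (UniProt Q4DA54). Concentration: 30 µM. Higher reads as stronger inhibition (inferred: compounds with an IC50 in retests scored well above the rest). Of about 69,000 compounds tested this way, about 31 (0.045%) reached 50% or more in at least one test.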
LiHisRS: 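Enzyme assay of histidyl-tRNA synthetase; the read-out is not stated. Target: Histidine-tRNA ligase, Leishmania infantum (UniProt A4I591). Compounds at 30 µM. Direction is inferred from retests: higher values go with stronger inhibition. The assay is labelled LdHisRS but filed under L. infantum. About 69,000 compounds were tested under these conditions; 0.6% (about 410) showed 50% or more at least once.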

The filed quantity is “Percent Effect” (%). The controls that fix the scale are not given in the record; negative values are as filed. The compounds are a random part of those screened.

Compound,Pks13 thioesterase,TcHisRS,LiHisRS
c1ccc(-c2nc(CN3CCCC(Cn4cncn4)C3)cs2)cc1 (stereo not given),13.62,18.9,35.96
O=c1c(S(=O)(=O)N2CCCC2)cccn1Cc1ccccc1Cl,-21.22,12.95,27.96
CC(C)N1CCN(C)CC(Cc2cc(N(C)C)ncn2)C1 (stereo not given),9.632,10.34,12.86
CNC(=O)C1CCCCN1C(=O)c1cn(CCOC)c2ccccc12 (stereo not given),-5.672,3.061,0
CCC(c1ccc(F)cc1)S(=O)(=O)CCO (stereo not given),-18.4,6.878,-4
O=C(c1coc(COc2ccccc2F)n1)N1CCCO1,-4.95,7.035,1.176
COc1cccc(N2CCC(N3C[C@@H](NC(C)=O)[C@H](C(C)C)C3)CC2)c1,-21.76,6.145,10.53
COc1cc(CN2CCN(CC3CC3)[C@@H]3CS(=O)(=O)C[C@@H]32)cc(OC)c1,4.991,8.939,1.042
Cc1cccc(C(C(=O)N2CC(Oc3ccccc3F)C2)N(C)C)c1 (stereo not given),-39.46,11.7,22.39
Cc1cccc(S(=O)(=O)NC(=O)c2ccc3c(c2)nnn3C)c1,-1.725,10.92,8.772
N#Cc1cccc(CN2CCC3(CC(C(=O)NCC4CC4)=NO3)C2)c1 (stereo not given),-41.01,0.4975,24.32
CCNc1cc2c(nn1)CCN(C(=O)C1COc3ccccc3C1)C2 (stereo not given),-33.35,6.122,16.53
CCCc1noc(CNc2cc(C[S+](C)[O-])ccc2Cl)n1 (stereo not given),-34.95,2.703,15.38
COC(=O)C(CCSC)NC(=O)Cc1c(C)nn(-c2ccccc2)c1C (stereo not given),-9.672,-7.317,11.86
CNC(=O)c1[nH]nc2c1CN(c1cc(C3CCCNC3)nc(C)n1)CC2 (stereo not given),-1.556,3.03,22.22
Cc1nc(CCNC(=O)C2CC(=O)N(C(C)C)C2)cs1 (stereo not given),30.13,-5.521,24.69
Fc1ccc2[nH]c(CO[C@H]3CN(CC4CC4)C[C@H]3F)nc2c1,-12.36,6.468,13.51
O=C(O)[C@@H]1CN(C(=O)c2ccc3[nH]nnc3c2)C[C@H]1c1ccccc1,-41.2,6.03,9.574
CCOCc1ccc(CNc2cncc(-n3cccn3)n2)cc1,-10.52,1.143,0
CCOCC1CN(C(=O)Cc2ccccn2)Cc2c1cnn2CC (stereo not given),-3.384,8.163,19
CNC(=O)CN1CCOCC12CCN(CCc1ccccc1)CC2,-17.39,4.202,13.76
Cc1nc(CN2CCN(C(=O)CC(C)(C)c3ccccc3)CC2)no1,-6.56,5.814,8.197
CC[S+]([O-])CCc1nc(CC(C)C)nn1-c1ccc2c(c1)OCCO2 (stereo not given),-17.82,8.205,12.24
CCc1ccc(CN(C)c2cc(COC)nc3ccnn23)cc1,6.344,9.091,21.31
COc1c(C)cnc(CNC(=O)CCOCC(C)C)c1C,-16.41,8.333,17.78
CN(Cc1noc(C(C)(C)C)n1)C1CCCN(c2cccnn2)C1 (stereo not given),-22.71,4.598,20.87
CC(OCC1CC1)C(=O)N1CCCN(Cc2nccn2C(C)C)CC1 (stereo not given),-13.77,1.127,0.8696
Fc1cccc(-c2cccc(N3CCC(NC4CCCOC4)CC3)c2)c1 (stereo not given),-29.54,1,0
O=C1CN(C(=O)c2cccc(OCc3cscn3)c2)CCN1,-25.97,7.331,13.89
N#Cc1cnn(CCN2CCOC(CNc3cccnn3)C2)c1 (stereo not given),12.71,5.882,5.556
O=C(c1cc(Cl)c2c(c1)OCO2)N1CCN(c2nccs2)CC1,-12.78,4.132,26.92
Cc1noc(OCCOc2ccc(C#N)cc2)n1,-20.02,8.333,20
COc1ccc2nnc(CCC(=O)NCc3cccn3C)n2n1,-14.32,4.95,14.13
Cc1cc(C(=O)N2CCN(c3nc4c(C)cccc4s3)CC2)no1,4.131,11,8.696
CC(C(=O)NCc1ccc(N2CCCC2)nc1)S(C)(=O)=O (stereo not given),-14.3,0.2907,-0.8772
CC(NCCc1nccn1Cc1ccccc1)c1ccsc1 (stereo not given),-11.81,3.448,-6.25
O=C(C1CC1)N1CC[C@H](c2nnc(-c3ccccc3F)o2)C1,-36.37,11.88,16.67
Cc1n[nH]c(C)c1S(=O)(=O)N1CCC(Oc2ccccc2F)CC1,-1.109,3.077,5.634

The first 2 entries again:

For c1ccc(-c2nc(CN3CCCC(Cn4cncn4)C3)cs2)cc1 (stereo not given) the result was Pks13 thioesterase: 13.62%; TcHisRS: 18.9%; LiHisRS: 35.96%.
For O=c1c(S(=O)(=O)N2CCCC2)cccn1Cc1ccccc1Cl the result was Pks13 thioesterase: -21.22%; TcHisRS: 12.95%; LiHisRS: 27.96%.